The target of the assay is human TrkB receptor (as used in the BIAcore assay) (human) (UniProt Q16620). The experiment in a line: BIAcore (SPR), in the presence of Mab1241 Fab; data not shown.

Protein sequences, listed by entry. Tags and fused reporters are not part of them. Residues count along the entry.
UniProt Q16620, residues 32-430: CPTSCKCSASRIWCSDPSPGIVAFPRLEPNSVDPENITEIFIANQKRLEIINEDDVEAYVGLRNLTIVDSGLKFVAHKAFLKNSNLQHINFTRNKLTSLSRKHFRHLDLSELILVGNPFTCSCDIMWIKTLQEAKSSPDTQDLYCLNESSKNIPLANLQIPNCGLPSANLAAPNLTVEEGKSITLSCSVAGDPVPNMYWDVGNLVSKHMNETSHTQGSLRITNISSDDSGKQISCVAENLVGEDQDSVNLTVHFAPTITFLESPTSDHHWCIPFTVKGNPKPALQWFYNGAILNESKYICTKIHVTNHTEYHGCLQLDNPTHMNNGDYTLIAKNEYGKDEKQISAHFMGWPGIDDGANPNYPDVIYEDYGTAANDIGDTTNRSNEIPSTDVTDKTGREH

Results are given in words; binding and its absence hold for the method and conditions named. Some results given as binding are weak or reduced against the parent protein; the word gives no strength.

B1: human NT-4/5 (mature human neurotrophin-4/5) (ligand)
chain: GVSETAPASRRGELAVCDAVSGWVTDRRTAVDLRGREVEVLGEVPAAGGSPLRQYFFETRCKADNAEEGGPGAGGGGCRGVDRRHWVSECKAKQSYVRALTADAQGRVGWRWIRIDTACVCTLLSRTGRA
In the case of B1, the binding result was “binds”.

Source of the values: patent publication US20050209148A1 (RINAT NEUROSCIENCE, published 2005).
